Assay results taken from article doi:10.1101/2021.11.24.469949.

How the values were obtained:
Test in all cases: affinity purification with mass spectrometry
[1] = target: T1, 3xFLAG tagged CNA (Arabidopsis) (UniProt Q9ZU11)
T1 sequence: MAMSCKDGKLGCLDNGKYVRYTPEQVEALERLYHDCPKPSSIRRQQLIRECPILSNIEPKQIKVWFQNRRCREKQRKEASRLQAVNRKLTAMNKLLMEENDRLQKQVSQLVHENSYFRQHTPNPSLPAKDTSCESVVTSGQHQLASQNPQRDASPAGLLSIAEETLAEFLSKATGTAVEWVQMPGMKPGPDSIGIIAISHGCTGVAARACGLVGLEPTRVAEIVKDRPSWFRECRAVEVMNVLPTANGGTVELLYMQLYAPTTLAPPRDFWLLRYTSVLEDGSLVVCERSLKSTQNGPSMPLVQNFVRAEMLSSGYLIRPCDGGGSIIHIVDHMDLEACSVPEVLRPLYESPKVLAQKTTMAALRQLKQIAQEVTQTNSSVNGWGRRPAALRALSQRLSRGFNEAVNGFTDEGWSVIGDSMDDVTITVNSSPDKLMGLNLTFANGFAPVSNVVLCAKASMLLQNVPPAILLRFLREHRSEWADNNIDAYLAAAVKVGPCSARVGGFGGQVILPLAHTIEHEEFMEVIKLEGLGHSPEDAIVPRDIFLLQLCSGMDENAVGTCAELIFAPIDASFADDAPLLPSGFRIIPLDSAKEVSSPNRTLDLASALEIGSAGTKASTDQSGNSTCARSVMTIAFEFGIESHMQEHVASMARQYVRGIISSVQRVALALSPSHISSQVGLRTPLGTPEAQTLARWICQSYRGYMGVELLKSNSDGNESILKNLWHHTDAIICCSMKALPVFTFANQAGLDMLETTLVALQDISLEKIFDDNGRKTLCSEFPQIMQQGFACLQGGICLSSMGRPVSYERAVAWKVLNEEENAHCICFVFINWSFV

[2] = target: ZPR1-tdTomato-3xFLAG (Arabidopsis)
[3] = target: T2, ZPR2-tdTomato-3xFLAG (Arabidopsis) (UniProt Q9LZX5)
T2 sequence: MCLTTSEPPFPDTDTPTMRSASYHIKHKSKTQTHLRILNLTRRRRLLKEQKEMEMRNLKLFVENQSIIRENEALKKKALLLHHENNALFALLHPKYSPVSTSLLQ

[4] = target: T3, ZPR3-tdTomato-3xFLAG (Arabidopsis) (UniProt Q9LXI8)
T3 sequence: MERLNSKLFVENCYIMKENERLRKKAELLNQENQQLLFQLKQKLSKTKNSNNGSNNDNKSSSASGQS

[5] = target: T4, ZPR4-tdTomato-3xFLAG (Arabidopsis) (UniProt Q56WL5)
T4 sequence: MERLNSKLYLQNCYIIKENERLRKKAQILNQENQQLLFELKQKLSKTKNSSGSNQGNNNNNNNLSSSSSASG

Measured: binding

B1: PHAVOLUTA/ATHB9 (PHV) (protein, UniProt O04292 1-841)
chain: MMAHHSMDDRDSPDKGFDSGKYVRYTPEQVEALERVYAECPKPSSLRRQQLIRECPILCNIEPRQIKVWFQNRRCREKQRKESARLQTVNRKLSAMNKLLMEENDRLQKQVSNLVYENGFMKHRIHTASGTTTDNSCESVVVSGQQRQQQNPTHQHPQRDVNNPANLLSIAEETLAEFLCKATGTAVDWVQMIGMKPGPDSIGIVAVSRNCSGIAARACGLVSLEPMKVAEILKDRPSWFRDCRCVETLNVIPTGNGGTIELVNTQIYAPTTLAAARDFWTLRYSTSLEDGSYVVCERSLTSATGGPNGPLSSSFVRAKMLSSGFLIRPCDGGGSIIHIVDHVDLDVSSVPEVLRPLYESSKILAQKMTVAALRHVRQIAQETSGEVQYSGGRQPAVLRTFSQRLCRGFNDAVNGFVDDGWSPMSSDGGEDITIMINSSSAKFAGSQYGSSFLPSFGSGVLCAKASMLLQNVPPLVLIRFLREHRAEWADYGVDAYSAASLRATPYAVPCVRTGGFPSNQVILPLAQTLEHEEFLEVVRLGGHAYSPEDMGLSRDMYLLQLCSGVDENVVGGCAQLVFAPIDESFADDAPLLPSGFRVIPLDQKTNPNDHQSASRTRDLASSLDGSTKTDSETNSRLVLTIAFQFTFDNHSRDNVATMARQYVRNVVGSIQRVALAITPRPGSMQLPTSPEALTLVRWITRSYSIHTGADLFGADSQSCGGDTLLKQLWDHSDAILCCSLKTNASPVFTFANQAGLDMLETTLVALQDIMLDKTLDDSGRRALCSEFAKIMQQGYANLPAGICVSSMGRPVSYEQATVWKVVDDNESNHCLAFTLVSWSFV
binds: [1] | [2] | [3] | [4] | [5]

B2: ATHB8 (protein, UniProt Q39123 1-833)
chain: MGGGSNNSHNMDNGKYVRYTPEQVEALERLYNDCPKPSSMRRQQLIRECPILSNIEPKQIKVWFQNRRCREKQRKEASRLQAVNRKLTAMNKLLMEENDRLQKQVSHLVYENSYFRQHPQNQGNLATTDTSCESVVTSGQHHLTPQHQPRDASPAGLLSIADETLTEFISKATGTAVEWVQMPGMKPGPDSIGIVAISHGCTGIAARACGLVGLDPTRVAEILKDKPCWLRDCRSLDIVNVLSTANGGTLELIYMQLYAPTTLAPARDFWMLRYTSVMEDGSLVICERSLNNTQNGPSMPPSPHFVRAEILPSGYLIRPCEGGGSILHIVDHFDLEPWSVPEVLRSLYESSTLLAQRTTMAALRYLRQISQEISQPNVTGWGRRPAALRALSQRLSKGFNEAVNGFSDEGWSILESDGIDDVTLLVNSSPTKMMMTSSLPFANGYTSMPSAVLCAKASMLLQNVPPSILLRFLREHRQEWADNSIDAYSAAAIKAGPCSLPIPRPGSFGGQVILPLAHTIENEEFMEVIKLESLGHYQEDMMMPADIFLLQMCSGVDENAVESCAELIFAPIDASFSDDAPIIPSGFRIIPLDSKSEGLSPNRTLDLASALDVGSRTAGDSCGSRGNSKSVMTIAFQLAFEMHMQENVASMARQYVRSVIASVQRVALALSPSSHQLSGLRPPPASPEAHTLARWISHSYRCYLGVDLLKPHGTDLLKSLWHHPDAVMCCSLKALSPVFTFANQAGLDMLETTLVALQDITLDKIFDNNNGKKTLSSEFPQIMQQGFMCMDGGICMSSMGRAVTYEKAVGWKVLNDDEDPHCICFMFLNWSFI
binds: [1] | [2] | [3] | [4] | [5]

No constants are given. Whether binding was seen depends on the method and setting. In cells and extracts the contact can be indirect. Here binding means that the protein was enriched with, or labelled near, the bait; the list need not be complete. For some of these results: Sequences can lack the tags named with a protein.
